Patent US3989714A, “3-Phenylhydroindoles” (priority 1974, dated 1976)
Counter-ions that a name gives are not always drawn. For at least one compound, name, drawing or mass did not settle the structure.

System: Rhinovirus 2 (HGP)
Experiment: Antiviral activity tube method (Rightsel procedure), liquid media, HeLa cells
Assay type: cell-based
Text: Compounds of the present invention show antiviral activity in concentrations of 50 to 100 γ/ml when tested in liquid media using the procedure of Rightsel (Univ. of Mich. Med. Bull. 24:222-234 (1958)) and on solid media using the Herrmann modification of the Dulbecco Technique (Proc. Nat. Acad. Sci., Wash. 38:747-752 (1952); Proc. Soc. Exp. Bio., N.Y., 103: 625-628 (1960)).
More particularly the protocol for the Rightsel procedure used is as follows:
ANTIVIRAL ACTIVITY TUBE METHOD
PURPOSE: The determination of toxicity and antiviral activity of
experimental compounds in normal and cancer cell lines
in vitro in tubes with liquid culture media.
MATERIALS: Cell Lines - cancer
HeLa - Human Carcinoma of the Cervix
Virus - Rhinovirus 2 (HGP)
Growth Medium - Basal Medium Eagle (BME) with Earle's
salts, containing 10 % fetal bovine serum,
penicillin (100 units/ml.) and
streptomycin (100 mcg./ml.)
Maintenance Medium - A 1:1 mixture of BME and Medium
199; contains 2 % fetal bovine serum.
Trypsin - (1-300) 0.25 % in Ca-free and Mg-free
Hanks' balanced salt solution (BSS)
Roller Bottles - Bellco
Tubes - Sterile 16 × 150 mm plastic screw top […]
RECORDING: HeLa cell cultures are read every day, starting on day 3
and readings are continued until culture controls have […]
5-6 days. WI-38 cultures are read every other day, […]
also recorded as 0 - 4+, depending on the percent of […]

SMILES: COc1ccc(C2CN(O)C3CCCCC23)cc1OC (stereo not shown) [Example 4, 3-(3,4-dimethoxyphenyl)hexahydro-1-hydroxyindoline hydrochloride]
- antiviral activity after four days of incubation, liquid test: showed antiviral activity
